Our source for the binding values is US20240034785A1, “RXR-ALPHA BINDERS AND RXR-ALPHA/PLK1 MODULATORS” (NUCMITO PHARMACEUTICALS CO. LTD., priority 2020, published 2024).

Chains of the proteins cited; added tags and fusions are not shown. Lines headed by an entry give the natural chain unless they say otherwise; changes in a name come on top.
UniProt P19793: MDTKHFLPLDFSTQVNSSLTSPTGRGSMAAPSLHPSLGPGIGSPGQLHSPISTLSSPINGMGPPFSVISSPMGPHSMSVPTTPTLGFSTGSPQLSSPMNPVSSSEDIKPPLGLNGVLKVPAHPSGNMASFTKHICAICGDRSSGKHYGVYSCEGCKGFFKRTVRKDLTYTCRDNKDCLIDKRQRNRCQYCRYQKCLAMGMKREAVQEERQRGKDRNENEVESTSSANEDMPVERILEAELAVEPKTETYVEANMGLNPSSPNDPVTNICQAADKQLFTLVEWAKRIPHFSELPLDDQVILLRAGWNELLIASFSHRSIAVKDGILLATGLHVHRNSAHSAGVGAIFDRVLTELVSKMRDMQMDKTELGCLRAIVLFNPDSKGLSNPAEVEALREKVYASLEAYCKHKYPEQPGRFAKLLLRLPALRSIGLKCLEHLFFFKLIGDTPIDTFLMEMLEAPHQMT

Results are given in words; binding and its absence hold for the method and conditions named. In cells and extracts the contact can be indirect. Binding calls can cover weak binding; strength is not graded here.

The assay concerns the target T1, polo-like kinase 1 (PLK1), full-length (human, UniProt P53350 1-603).
T1 construct: Endogenous, FLAG-tagged and His-tagged forms are merged here; also called FLAG-PLK1; Flag-PLK1
The assay is described as follows: CoIP of FLAG-PLK1 with Myc-RXRα mutants in HeLa cells (FIG. 27).

For the substance “RXRα mutated at Ser96 (from UniProt P19793) (receptor)”, the binding result was “binds”.
As to “RXRα mutated at Ser260 (from UniProt P19793) (receptor)”, the binding result was “binds”.
